From article PMC8927349
These are yes or no findings as the source states them, for the method shown. Binding seen in cells or lysates may run through a third protein. Some binding calls cover weakened binding; strength is not graded here.

Biological target: T1, NCLX, mitochondrial Na+/Ca2+ exchanger (UniProt Q6J4K2)
T1 sequence: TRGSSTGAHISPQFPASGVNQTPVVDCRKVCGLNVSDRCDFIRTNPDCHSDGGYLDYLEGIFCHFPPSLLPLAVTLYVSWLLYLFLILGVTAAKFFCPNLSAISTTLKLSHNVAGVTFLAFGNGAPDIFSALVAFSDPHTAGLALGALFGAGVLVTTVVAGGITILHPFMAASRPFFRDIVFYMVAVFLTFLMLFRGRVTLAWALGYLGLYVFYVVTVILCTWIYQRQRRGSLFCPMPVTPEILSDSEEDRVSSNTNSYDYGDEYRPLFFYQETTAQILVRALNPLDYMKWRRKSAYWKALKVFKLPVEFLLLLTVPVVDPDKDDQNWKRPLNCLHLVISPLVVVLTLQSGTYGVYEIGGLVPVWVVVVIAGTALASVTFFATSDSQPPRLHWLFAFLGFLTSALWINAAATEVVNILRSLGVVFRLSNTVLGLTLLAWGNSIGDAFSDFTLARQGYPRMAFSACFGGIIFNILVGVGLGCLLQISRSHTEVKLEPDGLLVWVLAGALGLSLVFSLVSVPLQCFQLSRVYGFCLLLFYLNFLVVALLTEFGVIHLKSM
Assay: co-IP; whole cell lysates of OEC-M1 cells transiently transfected with Lon (or Lon K529R) and/or NCLX plasmids; immunoprecipitated with anti-Lon or anti-NCLX antibody; Western blot

B1: mitochondrial Lon (protein, UniProt P36776 68-959)
chain: FWEASSRGGGAFSGGEDASEGGAEEGAGGAGGSAGAGEGPVITALTPMTIPDVFPHLPLIAITRNPVFPRFIKIIEVKNKKLVELLRRKVRLAQPYVGVFLKRDDSNESDVVESLDEIYHTGTFAQIHEMQDLGDKLRMIVMGHRRVHISRQLEVEPEEPEAENKHKPRRKSKRGKKEAEDELSARHPAELAMEPTPELPAEVLMVEVENVVHEDFQVTEEVKALTAEIVKTIRDIIALNPLYRESVLQMMQAGQRVVDNPIYLSDMGAALTGAESHELQDVLEETNIPKRLYKALSLLKKEFELSKLQQRLGREVEEKIKQTHRKYLLQEQLKIIKKELGLEKDDKDAIEEKFRERLKELVVPKHVMDVVDEELSKLGLLDNHSSEFNVTRNYLDWLTSIPWGKYSNENLDLARAQAVLEEDHYGMEDVKKRILEFIAVSQLRGSTQGKILCFYGPPGVGKTSIARSIARALNREYFRFSVGGMTDVAEIKGHRRTYVGAMPGKIIQCLKKTKTENPLILIDEVDKIGRGYQGDPSSALLELLDPEQNANFLDHYLDVPVDLSKVLFICTANVTDTIPEPLRDRMEMINVSGYVAQEKLAIAERYLVPQARALCGLDESKAKLSSDVLTLLIKQYCRESGVRNLQKQVEKVLRKSAYKIVSGEAESVEVTPENLQDFVGKPVFTVERMYDVTPPGVVMGLAWTAMGGSTLFVETSLRRPQDKDAKGDKDGSLEVTGQLGEVMKESARIAYTFARAFLMQHAPANDYLVTSHIHLHVPEGATPKDGPSAGCTIVTALLSLAMGRPVRQNLAMTGEVSLTGKILPVGGIKEKTIAAKRAGVTCIVLPAENKKDFYDLAAFITEGLEVHFVEHYREIFDIAFPDEQAEALAVER
For B1, the binding was “binds”.
